# Data published in the supplement of paper PMC8728848.
# This is one part of the list.
# How the values were obtained:
# Assay in all cases: glycan array binding signal (z-score within array); higher = stronger binding
# Conditions in all cases: glycan notation: IUPAC condensed, linker removed
# [1] = biological target: Fuc(a1-2)Gal
# Method in brief: (§1)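 Glycan array binding is given as a within-array Z-score, which can be read as non-binding when negative. The arrays, 3228 of them, came from the Consortium for Functional Glycomics database and were retained only where the protein sequence was available. Z-scores were averaged across arrays of the same protein sequence at different concentrations or buffers and across linkers.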
# [2] = biological target: Fuc(a1-2)Gal(b1-3)GalNAc
# Method in brief: as §1
# [3] = biological target: Fuc(a1-2)Gal(b1-3)GalNAc(b1-3)Gal
# Method in brief: as §1
# [4] = biological target: Fuc(a1-2)Gal(b1-3)GalNAc(b1-3)Gal(a1-4)Gal(b1-4)Glc
# Method in brief: as §1
# [5] = biological target: Fuc(a1-2)Gal(b1-3)GalNAc(b1-3)Gal(b1-4)Glc
# Method in brief: as §1
# [6] = biological target: Fuc(a1-2)Gal(b1-3)GalNAc(b1-4)[Neu5Ac(a2-3)]Gal(b1-4)Glc
# Method in brief: as §1
# [7] = biological target: Fuc(a1-2)Gal(b1-3)[Fuc(a1-4)]GlcNAc
# Method in brief: as §1
# [8] = biological target: Fuc(a1-2)Gal(b1-4)Glc
# Method in brief: as §1
# [9] = biological target: Fuc(a1-2)Gal(b1-4)Glc6S
# Method in brief: as §1
# [10] = biological target: Fuc(a1-2)Gal(b1-4)GlcNAc
# Method in brief: as §1
# [11] = biological target: Fuc(a1-2)Gal(b1-4)GlcNAc(b1-3)Gal(b1-4)GlcNAc
# Method in brief: as §1
# [12] = biological target: Fuc(a1-2)Gal(b1-4)GlcNAc(b1-3)Gal(b1-4)GlcNAc(b1-3)Gal(b1-4)GlcNAc
# Method in brief: as §1
# [13] = biological target: Fuc(a1-2)Gal(b1-4)GlcNAc6S
# Method in brief: as §1
# [14] = biological target: Fuc(a1-2)Gal(b1-4)[Fuc(a1-3)]GalNAc(b1-3)Gal(b1-4)[Fuc(a1-3)]GlcNAc
# Method in brief: as §1
# [15] = biological target: Fuc(a1-2)Gal(b1-4)[Fuc(a1-3)]GalNAc(b1-3)Gal(b1-4)[Fuc(a1-3)]GlcNAc(b1-3)Gal(b1-4)[Fuc(a1-3)]GalNAc
# Method in brief: as §1
# [16] = biological target: Fuc(a1-2)Gal(b1-4)[Fuc(a1-3)]GlcNAc
# Method in brief: as §1
# [17] = biological target: Fuc(a1-2)Gal6S(b1-4)Glc
# Method in brief: as §1
# [18] = biological target: Fuc(a1-2)Gal6S(b1-4)Glc6S
# Method in brief: as §1
# [19] = biological target: Fuc(a1-2)Gal6S(b1-4)GlcNAc
# Method in brief: as §1
# [20] = biological target: Fuc(a1-2)GlcNAc
# Method in brief: as §1
# [21] = biological target: Fuc(a1-2)[Gal(a1-3)]Gal
# Method in brief: as §1
# [22] = biological target: Fuc(a1-2)[Gal(a1-3)]Gal(b1-3)GlcNAc
# Method in brief: as §1
# [23] = biological target: Fuc(a1-2)[Gal(a1-3)]Gal(b1-4)Glc
# Method in brief: as §1
# [24] = biological target: Fuc(a1-2)[Gal(a1-3)]Gal(b1-4)GlcNAc
# Method in brief: as §1
# [25] = biological target: Fuc(a1-2)[Gal(a1-3)]Gal(b1-4)[Fuc(a1-3)]GlcNAc
# Method in brief: as §1
# [26] = biological target: Fuc(a1-2)[Gal(a1-4)]Gal(b1-4)GalNAc
# Method in brief: as §1
# [27] = biological target: Fuc(a1-2)[GalNAc(a1-3)]Gal
# Method in brief: as §1
# [28] = biological target: Fuc(a1-2)[GalNAc(a1-3)]Gal(b1-3)GlcNAc
# Method in brief: as §1
# [29] = biological target: Fuc(a1-2)[GalNAc(a1-3)]Gal(b1-4)Glc
# Method in brief: as §1
# [30] = biological target: Fuc(a1-2)[GalNAc(a1-3)]Gal(b1-4)GlcNAc
# Method in brief: as §1
# [31] = biological target: Fuc(a1-2)[GalNAc(a1-3)]Gal(b1-4)[Fuc(a1-3)]GlcNAc
# Method in brief: as §1
# [32] = biological target: Fuc(a1-2)[GalNAc(a1-4)]Gal(b1-4)GlcNAc
# Method in brief: as §1
# [33] = biological target: Fuc(a1-3)GlcNAc
# Method in brief: as §1
# [34] = biological target: Fuc(a1-3)[Gal(b1-4)]Glc6S
# Method in brief: as §1
# [35] = biological target: Fuc(a1-3)[Gal(b1-4)]GlcNAc
# Method in brief: as §1
# [36] = biological target: Fuc(a1-3)[Gal(b1-4)]GlcNAc(b1-3)Gal(b1-3)[Fuc(a1-4)]GlcNAc
# Method in brief: as §1
# [37] = biological target: Fuc(a1-3)[Gal(b1-4)]GlcNAc(b1-4)Gal(b1-4)[Fuc(a1-3)]GlcNAc
# Method in brief: as §1
# [38] = biological target: Fuc(a1-3)[Gal(b1-4)]GlcNAc(b1-4)Gal(b1-4)[Fuc(a1-3)]GlcNAc(b1-4)Gal(b1-4)[Fuc(a1-3)]GlcNAc
# Method in brief: as §1
# [39] = biological target: Fuc(a1-3)[Gal(b1-4)]GlcNAc6S
# Method in brief: as §1
# [40] = biological target: Fuc(a1-3)[Gal3S(b1-4)]Glc
# Method in brief: as §1
# [41] = biological target: Fuc(a1-3)[Gal3S(b1-4)]Glc6S
# Method in brief: as §1
# [42] = biological target: Fuc(a1-3)[Gal3S(b1-4)]GlcNAc
# Method in brief: as §1
# [43] = biological target: Fuc(a1-3)[Gal3S(b1-4)]GlcNAc6S
# Method in brief: as §1
# [44] = biological target: Fuc(a1-3)[GalNAc(b1-4)]Gal(b1-4)GlcNAc
# Method in brief: as §1
# [45] = biological target: Fuc(a1-4)GlcNAc
# Method in brief: as §1
# [46] = biological target: Fuc(b1-3)GlcNAc
# Method in brief: as §1
# [47] = biological target: Gal(a1-2)Gal
# Method in brief: as §1
# [48] = biological target: Gal(a1-3)Gal
# Method in brief: as §1
# [49] = biological target: Gal(a1-3)Gal(b1-3)Glc
# Method in brief: as §1
# [50] = biological target: Gal(a1-3)Gal(b1-3)GlcNAc
# Method in brief: as §1
# [51] = biological target: Gal(a1-3)Gal(b1-4)GlcNAc
# Method in brief: as §1
# [52] = biological target: Gal(a1-3)Gal(b1-4)[Fuc(a1-3)]GalNAc
# Method in brief: as §1
# [53] = biological target: Gal(a1-3)GlcNAc
# Method in brief: as §1
# [54] = biological target: Gal(a1-3)[Gal(a1-4)]Gal(b1-4)GlcNAc
# Method in brief: as §1
# [55] = biological target: Gal(a1-4)Gal(b1-4)Gal
# Method in brief: as §1
# [56] = biological target: Gal(a1-4)Gal(b1-4)GalNAc
# Method in brief: as §1
# [57] = biological target: Gal(a1-4)GlcNAc
# Method in brief: as §1
# [58] = biological target: Gal(a1-6)Glc
# Method in brief: as §1
# [59] = biological target: Gal(b1-2)Gal
# Method in brief: as §1
# [60] = biological target: Gal(b1-3)Gal
# Method in brief: as §1
binder,measurement,setting,value
"FBG2 (Homo sapiens), Q9NRD1 (protein) MDAPHSKAALDSINELPENILLELFTHVPARQLLLNCRLVCSLWRDLIDLMTLWKRKCLREGFITKDWDQPVADWKIFYFLRSLHRNLLRNPCAEEDMFAWQIDFNGGDRWKVESLPGAHGTDFPDPKVKKYFVTSYEMCLKSQLVDLVAEGYWEELLDTFRPDIVVKDWFAARADCGCTYQLKVQLASADYFVLASFEPPPVTIQQWNNATWTEVSYTFSDYPRGVRYILFQHGGRDTQYWAGWYGPRVTNSSIVVSPKMTRNQASSEAQPGQKHGQEEAAQSPYRAVVQIFPPPVTIQQWNNATWTEVSYTFSDYPRGVRYILFQHGGRDTQYWAGWYGPRVTNSSIVVSPKMTRNQASSEAQPGQKHGQEEAAQSPYRAVVQI",glycan array binding signal (z-score),[1],-0.76
same,glycan array binding signal (z-score),[2],-0.536
same,glycan array binding signal (z-score),[3],1.62
same,glycan array binding signal (z-score),[4],0.034
same,glycan array binding signal (z-score),[5],-0.267
same,glycan array binding signal (z-score),[6],0.264
same,glycan array binding signal (z-score),[7],-0.375
same,glycan array binding signal (z-score),[8],-0.605
same,glycan array binding signal (z-score),[9],-0.35
same,glycan array binding signal (z-score),[10],-0.43
same,glycan array binding signal (z-score),[11],0.089
same,glycan array binding signal (z-score),[12],-0.031
same,glycan array binding signal (z-score),[13],-0.718
same,glycan array binding signal (z-score),[14],0.384
same,glycan array binding signal (z-score),[15],-0.179
same,glycan array binding signal (z-score),[16],0.154
same,glycan array binding signal (z-score),[17],-0.533
same,glycan array binding signal (z-score),[18],0.595
same,glycan array binding signal (z-score),[19],-0.679
same,glycan array binding signal (z-score),[20],-0.369
same,glycan array binding signal (z-score),[21],-0.577
same,glycan array binding signal (z-score),[22],0.037
same,glycan array binding signal (z-score),[23],-0.566
same,glycan array binding signal (z-score),[24],-0.507
same,glycan array binding signal (z-score),[25],0.24
same,glycan array binding signal (z-score),[26],-0.858
same,glycan array binding signal (z-score),[27],-0.58
same,glycan array binding signal (z-score),[28],0.072
same,glycan array binding signal (z-score),[29],0.352
same,glycan array binding signal (z-score),[30],0.47
same,glycan array binding signal (z-score),[31],-0.226
same,glycan array binding signal (z-score),[32],-0.506
same,glycan array binding signal (z-score),[33],-0.674
same,glycan array binding signal (z-score),[34],-0.381
same,glycan array binding signal (z-score),[35],-0.537
same,glycan array binding signal (z-score),[36],-0.144
same,glycan array binding signal (z-score),[37],-0.045
same,glycan array binding signal (z-score),[38],0.56
same,glycan array binding signal (z-score),[39],0.09
same,glycan array binding signal (z-score),[40],-0.545
same,glycan array binding signal (z-score),[41],0.365
same,glycan array binding signal (z-score),[42],-0.236
same,glycan array binding signal (z-score),[43],0.755
same,glycan array binding signal (z-score),[44],-0.382
same,glycan array binding signal (z-score),[45],-0.195
same,glycan array binding signal (z-score),[46],-0.191
same,glycan array binding signal (z-score),[47],-0.526
same,glycan array binding signal (z-score),[48],-0.626
same,glycan array binding signal (z-score),[49],-0.293
same,glycan array binding signal (z-score),[50],-0.487
same,glycan array binding signal (z-score),[51],0.097
same,glycan array binding signal (z-score),[52],0.215
same,glycan array binding signal (z-score),[53],-0.826
same,glycan array binding signal (z-score),[54],0.314
same,glycan array binding signal (z-score),[55],0.4
same,glycan array binding signal (z-score),[56],-0.576
same,glycan array binding signal (z-score),[57],-0.876
same,glycan array binding signal (z-score),[58],1.57
same,glycan array binding signal (z-score),[59],-0.363
same,glycan array binding signal (z-score),[60],-0.597

# Part of the list above in another layout:
binder	measurement	setting	value
FBG2 (Homo sapiens), Q9NRD1 (protein) MDAPHSKAALDSINELPENILLELFTHVPARQLLLNCRLVCSLWRDLIDLMTLWKRKCLREGFITKDWDQPVADWKIFYFLRSLHRNLLRNPCAEEDMFAWQIDFNGGDRWKVESLPGAHGTDFPDPKVKKYFVTSYEMCLKSQLVDLVAEGYWEELLDTFRPDIVVKDWFAARADCGCTYQLKVQLASADYFVLASFEPPPVTIQQWNNATWTEVSYTFSDYPRGVRYILFQHGGRDTQYWAGWYGPRVTNSSIVVSPKMTRNQASSEAQPGQKHGQEEAAQSPYRAVVQIFPPPVTIQQWNNATWTEVSYTFSDYPRGVRYILFQHGGRDTQYWAGWYGPRVTNSSIVVSPKMTRNQASSEAQPGQKHGQEEAAQSPYRAVVQI	glycan array binding signal (z-score)	[10]	-0.43
same	glycan array binding signal (z-score)	[17]	-0.533
same	glycan array binding signal (z-score)	[20]	-0.369
same	glycan array binding signal (z-score)	[49]	-0.293
